Measured values as given in the supplement of paper PMC10338343.
± gives the standard deviation. The entries are a selection whose mix differs from that of the whole data set. Many entries were measured with a wide error.

These sequences were tested on MILI (PIWIL2) piRISC loaded with piRNA #1 (26 nt) (assay: pre-steady-state target cleavage rate (min^-1); MIWI and MILI are mouse PIWI proteins and EfPiwi is from a freshwater sponge; tags in brackets are library labels; higher = faster piRNA-guided slicing of the target). Conditions: guide: piRNA #1 5'p-UGAGGUAGUAGGUUGUAUAGUAUCCA; auxiliary factor: 500 nM mouse GTSF1.
Method in brief: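 A transcribed, DNA-blocked target RNA library (0.1 nM) and 1 nM active affinity-purified piRISC bearing one synthetic guide were incubated in HEPES–potassium acetate buffer at 33 °C for 0–8 or 0–960 min, either with or without 500 nM GTSF1 partner protein. Uncleaved targets were sequenced, normalised to depth and to weakly complementary targets, and pooled over three trials, with k3 capped at 0.0001 min^-1. The pre-steady-state cleavage rate was derived with a burst-and-steady-state fit.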

| Sequence | pre-steady-state target cleavage rate |
| --- | --- |
| GGAGACCUUACUUUACAUCCUACUACCUCA | 0.26 ± 0.022 |
| GGAGACCUUACUAUACAAUCCUACUACCUCA | 0.000793 ± 0.0086 |
| GGAGACCUAUGAUAUGAACCAACUACCUCA | 0.000275 ± 0.009 |
| GGAGAGGAUACUAUACAACCUUCUUCCUCA | 0.00104 ± 0.0056 |
| GGAGUGGAUACUAAACAUCCUACUACCUCA | 0.242 ± 0.013 |
| GGAGACGAUACUAUACAAGCUACUACCACA | 0.311 ± 0.016 |
| GGAGACCUAUGAUAUCUACCUACUUCCUCA | 0.000169 ± 0.019 |
| GGAGACCUUACUACUACAACCUACUACCUCA | 0.107 ± 0.011 |
| GGAGACCAUACUAUACAACGAUCUACCUCA | < 0.0001 |
| GGAGACCUUACUAUACAACCUAGAUGGAGA [g9:g22:cont:t1A] | 0.00111 ± 0.0054 |
| GGAGAGGAAACUAUACAACCUACUUCCUCA | 0.00168 ± 0.012 |
| GGAGUGGAUACUAUACAACCUAGAACCUCA | 0.0036 ± 0.0022 |
| GGAGAGGAUACUAUACAACCUAGUACCACA | 0.000893 ± 0.0082 |
| GGAGUGGAUACUUAUCAACCUACUACCUCA | 0.149 ± 0.011 |
| GGAGACCUAUGUAUACAACCUACUACUCUCA | 0.117 ± 0.013 |
| GGAGACCUAUGAUUACAACGAUGAUGGAGA [g12:g17:cont:t1A] | 0.000359 ± 0.011 |
| GGAGACCUAUGAUUACUAGCUACUACCUCA | 0.00253 ± 0.003 |
| GGAGACGUUACAAUACAACCUACUACCUCA | 0.163 ± 0.015 |
| GGAGACCUAACUAUACAACCUACUACCUUA | 0.12 ± 0.028 |
| GGAGACCUAUGAUAUGUACCUACUUCCACA | 0.000134 ± 0.021 |
| GGAGACCUUACUAUACAAUCUACUACCUCA | 0.127 ± 0.01 |
| GGAGACCUAUGAAUACAACCAUGAUGGAGA [g11:g18:cont:t1A] | 0.000492 ± 0.01 |
| GGAGACCUAUGAUAUGUACCAACAACCUCA | < 0.0001 |

Reformatted field by field: entries from further up.
GGAGACCAUACUAUACAACGAUCUACCUCA
  pre-steady-state target cleavage rate = < 0.0001
GGAGACCUAUGAUAUGUACCAACAACCUCA
  pre-steady-state target cleavage rate = < 0.0001
